Values of other authors in patent US20120058085A1, “Deuterium Modified Benzimidazoles” (priority 2009, published 2012).
For at least one compound, name, drawing or mass did not settle the structure.

Tested on: HCV RNA replication
Conditions: through inhibition of binding of 3′UTR of HCV negative strand RNA to NS4B; cited from earlier work

Structure (SMILES): Clc1ccc(Cn2c(CN3CCCC3)nc3ccccc32)cc1 [clemizole, 1-(p-chlorobenzyl)-2-(1-pyrrolidinylmethyl) benzimidazole, reference compound]
- inhibition of HCV RNA replication in cell culture: effective inhibitor
